Here are results for one molecule from PMC5594048.

The chains behind the UniProt entries cited, without tags or fusion partners.
UniProt Q39026: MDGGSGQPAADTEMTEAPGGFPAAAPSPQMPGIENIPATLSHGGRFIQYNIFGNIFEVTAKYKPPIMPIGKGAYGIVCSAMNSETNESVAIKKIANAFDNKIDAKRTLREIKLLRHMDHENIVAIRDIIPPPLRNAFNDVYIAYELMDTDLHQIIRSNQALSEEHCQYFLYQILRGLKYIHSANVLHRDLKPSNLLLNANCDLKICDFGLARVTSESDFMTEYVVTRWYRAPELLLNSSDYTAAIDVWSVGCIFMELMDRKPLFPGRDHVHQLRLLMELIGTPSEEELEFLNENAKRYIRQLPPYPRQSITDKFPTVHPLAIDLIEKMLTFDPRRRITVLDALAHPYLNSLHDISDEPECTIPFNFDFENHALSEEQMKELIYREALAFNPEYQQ

This assay addresses Mitogen-activated protein kinase 6 (MPK6), yeast two-hybrid fusion (Arabidopsis thaliana) (UniProt Q39026). As to the kind of experiment: two-hybrid; Gal4 reporter-based ProQuest two-hybrid system (Invitrogen), pDEST22/pDEST32; pairwise tests; growth on SD-Leu/-Trp/-His or SD-Leu/-Trp/-His/-Ade.

No constants are given. Whether binding was seen depends on the method and setting. Some entries that bind do so weakly or less than the wild type. Tags and fused reporters may be left off the sequences shown.

B1: PRP Homolog 1 (PH1), full length ORF, yeast two-hybrid fusion (protein, UniProt Q6NN02 1-125)
chain: MFFDTKVLNYPTIHKSISMASTMQRTSSSAASNERQLSQLQRRAPSLMIKPTSFSNWNVAIPLLSPLAPSLTSSFDQSHVPPPQNKTEIPVEEEVKKTPVFKKWQHPASPFCYEPTTFVPPFIQV
Consider B1, for which the binding entry is on record as “binds”.
